Earlier results on one molecule are cited in patent US20220323426A1, “CHOLINERGIC POTENTIATION OF BINOCULAR VISION” (THE ROYAL INSTITUTION FOR THE ADVANCEMENT OF LEARNING / …, priority 2019, published 2022).

What is called half-life is how long it takes for the measured level to halve.

For this data set the following is noted: Rogers et al., 1998; cited from earlier work.

For the molecule `COc1cc2c(cc1OC)C(=O)C(CC1CCN(Cc3ccccc3)CC1)C2` (stereo not shown) [donepezil], the half-life is recorded as 80 h.
